According to PubChem BioAssay AID2685 (National Center for Advancing Translational Sciences (NCATS), 2010):
This is one part of the list. Further columns of the screen follow, without active or inactive calls. Most of these compounds were active or inconclusive in the main read-out, so they are no random draw. The note in brackets gives the kind of curve behind each potency; many fits are weak.

Assay: qHTS Assay for Lipid Storage Modulators in Drosophila S3 Cells;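 for cell number change: cells counted by Cell Tracker Red CMTPX staining in the red channel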
Settings: BODIPY lipid droplet fluorescence, 18-24 h; for cell number change: measured here: cell count max response, cells fed with added oleic acid
In short: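 Drosophila S3 cells got compounds at several concentrations plus oleic acid (400 uM solution). Laser-scanning cytometry with 488 nm excitation read lipid droplets at 500-530 nm and cells at 575-640 nm. Percent activity was relative to 20 uM Triacsin C.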

[1] = measured here: lipid fluorescence (Fed channel) AC50, cells fed with added oleic acid
[2] = measured here: cell number channel AC50, cells fed with added oleic acid

| Structure (SMILES) | cell number change | AC50 [1] | AC50 [2] |
| --- | --- | --- | --- |
| CC1CCN(C(=O)CSc2nc(N)cc(N)n2)CC1 | 12.4% | 0.164 µM [falling, full curve] |  |
| Cc1nc(NC(=O)CCC(=O)O)sc1C(=O)N(C)C | -0.148% |  | 0.731 µM [falling, single point] |
| COc1ccc(C(=O)CSc2n[nH]c(=O)n2Cc2ccco2)cc1 | 14.2% | 6.51 µM [rising, partial curve] |  |
| O=S(=O)(NCCc1ccncc1)c1cc(Br)ccc1F | 101% | 18.4 µM [rising, partial curve] | 20.6 µM [rising, single point] |
| COc1ccccc1CC(=O)NC1CC1 | -2.75% | 6.51 µM [rising, single point] |  |
| COc1ccccc1N1CCN(C(=O)CSc2ncccc2-c2nc3ccccc3[nH]2)CC1 | -70.1% | 2.31 µM [rising, single point] | 3.26 µM [falling, partial curve] |
| Cc1cc([N+](=O)[O-])nn1CC(=O)N1CCOCC1 | 4.75% |  |  |
| COc1ccc(C(=O)O)c(OC)n1 | 36.4% | 0.0116 µM [rising, full curve, poor fit] | 0.164 µM [rising, full curve, poor fit] |
| O=C(Nc1ccc2ccccc2c1)c1cnccn1 | -3.04% | 13 µM [rising, partial curve] |  |
| O=C(CN1CCN(c2ncc(C(F)(F)F)cc2Cl)CC1)NC(=O)NCc1ccccc1 | -6.98% | 32.6 µM [rising, single point] | 0.461 µM [rising, full curve, poor fit] |
| Cc1[nH]c(C)c(S(=O)(=O)NCCc2ccc(S(N)(=O)=O)cc2)c1C(=O)N1CCCC1 | -1.47% | 29.1 µM [falling, single point] |  |
| CCC(C(=O)NC1CCCCC1)N(Cc1cccs1)C(=O)CCC(=O)Nc1cc(C)on1 (configuration not stated) | 5.24% | 0.517 µM [rising, full curve, poor fit] |  |
| COc1ccc(-c2c(C(F)(F)F)nn(C)c2NC(C)=O)cc1 | 38.2% | 29.1 µM [rising, single point] | 8.2 µM [rising, partial curve] |
| O=C1Nc2ccccc2C(O)(C(=O)N2CCCCC2)N1c1ccccc1 (configuration not stated) | -3.71% |  |  |
| CC1Cc2ccccc2N1C1=NS(=O)(=O)c2ccccc21 (configuration not stated) | -6.8% |  |  |
| CCCCNc1nc(CC(C)=O)ns1 | -8.08% | 0.731 µM [falling, full curve] |  |
| C=CCn1c(SCC(=O)C(C)(C)C)nnc1-c1ccccn1 | 11.7% | 0.00411 µM [rising, full curve, poor fit] |  |
| COc1ccc(-c2nnn(CC(=O)Nc3sc4c(c3C#N)CCCC4)n2)cc1 | -36.9% |  | 0.00461 µM [falling, full curve, poor fit] |
| CC1=Nc2ccccc2/C1=C/c1nc(-c2ccc(C)s2)oc1O | -9.13% |  | 0.00411 µM [rising, full curve, poor fit] |
| CC(NC(N)=O)C(=O)Nc1ccc(Cl)c(S(=O)(=O)Nc2ccc(Cl)cc2)c1 (configuration not stated) | 47.5% |  |  |

| Structure (SMILES) | cell number change | AC50 [1] | AC50 [2] |
| --- | --- | --- | --- |
| CCOC(=O)c1cnc(-n2nc(C)cc2C)nc1Nc1ccc(C)cc1 |  | 0.461 µM [rising, partial curve, poor fit] |  |
| O=C(CCNC(=O)c1ccc(Cl)cc1)Nc1ccc(Cl)cc1F | 16.2% | 29.1 µM [rising, single point] |  |
| O=C(COC(=O)c1cc(S(=O)(=O)N2CCOCC2)ccc1Cl)NCc1ccc2c(c1)OCO2 | -3.26% |  |  |
| CC(=O)Nc1ccc(S(=O)(=O)NC2(C(F)(F)F)NC(=O)N(C3CCCC3)C2=O)cc1 (configuration not stated) | -11.4% | 20.6 µM [falling, partial curve, poor fit] |  |
| COc1ccc(NC(=S)N2CCN(C(c3ccccc3)c3ccccc3)CC2)c(OC)c1 | 16.9% | 32.6 µM [rising, single point] |  |
| O=C(COC(=O)c1ccccc1OC(F)F)Nc1ccc2[nH]c(=O)[nH]c2c1 | -8.5% |  |  |
| CN(C)C(=O)c1cnc(Sc2ncc(C(F)(F)F)cc2Cl)n1C | 17.4% |  |  |
| N#Cc1ccccc1CSc1nnc(Cc2ccccc2)o1 | -44.9% |  | 3.66 µM [falling, single point] |
| C=CCNC(=S)NNC(=O)C(CCC(C)C)CC(C)(C)O (configuration not stated) | 32.3% | 0.731 µM [falling, full curve] |  |
| CC(C)Cn1c(SCC(=O)N2CCOCC2)nc2ccccc2c1=O | 32.3% |  |  |
| Cc1nc(NCCCn2ccnc2)c2ccccc2n1 | -5.42% | 0.517 µM [falling, full curve, poor fit] |  |
| COc1ccc(OC)c(NC(=O)c2cc3oc4ccccc4c3cc2O)c1 | -46.4% | 0.82 µM [falling, partial curve] | 29.1 µM [falling, partial curve, poor fit] |
| C[C@H](NC(=O)[C@@H]1CSC2c3ccccc3C(=O)N21)C(=O)NCCc1ccc(F)cc1 (some centres not stated) | 21.5% | 29.1 µM [rising, partial curve] |  |
| COc1ccc(-c2nn(Cc3ccccc3)cc2C(=O)N2CCN(c3ncccn3)CC2)cc1OC | 33.1% | 29.1 µM [rising, single point] | 29.1 µM [rising, single point] |
| COc1ccc(-c2cc(C(F)(F)F)c(C#N)c(SCC(=O)Nc3nc(C)co3)n2)cc1 | -17.8% | 0.82 µM [falling, full curve, poor fit] |  |
| OC(CCN1CCOCC1)c1ccccc1 (configuration not stated) | 30.9% |  | 5.8 µM [rising, partial curve, poor fit] |
| COc1ccc(C2C(C(=O)OCC(=O)N3CCCCC3)CCC(=O)N2c2ccc(OC)cc2)cc1 (configuration not stated) | -10.2% |  |  |
| Nc1nnc(CSCc2ccc(Cl)cc2Cl)s1 | 2.4% | 16.4 µM [rising, partial curve, poor fit] |  |
| COC(=O)C1CCN(C(=O)NC2CCCCC2)CC1 | 12.7% | 0.82 µM [falling, single point] |  |
| CN(CC(=O)Nc1ccc(OC(F)(F)F)cc1)C(=O)C1CCC1 | -22.2% | 11.6 µM [falling, single point] |  |

An excerpt from above, showing only AC50 [1]:
Structure (SMILES) | AC50 [1]
C=CCNC(=S)NNC(=O)C(CCC(C)C)CC(C)(C)O (configuration not stated) | 0.731 µM [falling, full curve]
Cc1nc(NCCCn2ccnc2)c2ccccc2n1 | 0.517 µM [falling, full curve, poor fit]
